Percent effect of library compounds

From ChEMBL document CHEMBL3988442, “University of Dundee, Small-Polar-MMV Screening Library” (2021).

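Whole-parasite assay of Trypanosoma brucei over 72 hours; the read-out is not stated. Concentration: 30 µM. Higher reads as stronger inhibition (inferred: compounds with an IC50 in retests scored well above the rest). Values scatter widely below zero; nearly all retest evidence comes from the higher of the two concentrations used. Size under these conditions: about 64,000 compounds, about 940 of them at 50% or above in at least one test.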

The filed quantity is “Percent Effect” (%).
How 0% and 100% were set is not recorded. Most values in the screen are low, and negative values occur.
Compounds were drawn at random from those tested, without regard to their results.

- c1ccc(-c2noc(C3CCN(CCCn4cncn4)CC3)n2)cc1 | -11.52%
- O=C(c1ccccc1C(F)(F)F)N1C[C@@H](CN2CCOCC2)[C@@H](CO)C1 | -15.85%
- Clc1ccc(OCCNCCn2cccn2)cc1 | -5.553%
- O=C1CC2(CCCC2)CC(=O)N1CCn1cnnc1 | -52.61%
- O=C(NCCc1ccncc1)c1cccc(S(=O)(=O)NC2CCOC2)c1 (stereo not given) | 13.61%
- CO[C@H]1CCN(C(=O)c2cc(C)on2)C[C@@H]1Cc1ccccc1 | -18.51%
- Cc1cc(Br)cnc1NCCN1CCC(N(C)C)CC1 | 43.66%
- COCc1nc(N(C)C)ncc1C(=O)Nc1cc(C)cc(C)c1 | -11.56%
- Cc1ccc(C(=O)NS(=O)(=O)c2ccccc2Br)c(=O)[nH]1 | -19.5%
- Cc1cnc(N2Cc3nccn3CC(Cn3ncccc3=O)C2)nc1.O=C(O)C(F)(F)F (stereo not given) | 5.629%
- CNC(=O)C1(CCCc2ccccn2)CN(Cc2coc(C)n2)C1 | -8.696%
- CC(NC1(CNS(C)(=O)=O)CCOCC1)c1ccccc1 (stereo not given) | -27.15%
- CN(C)S(=O)(=O)N1CCN(Cc2ccnc(N3CCCC3)n2)CC1 | -11.88%
- O=C(O)C(F)(F)F.O=C(O)C(F)(F)F.O=C(O)C(F)(F)F.[H][C@@]12CCN(Cc3cccnc3)C[C@]1([H])[C@@H](CN(C)Cc1ccco1)OC2 | 14.68%
- CN1CC(=O)N(c2cccnc2)CC12CCN(C(=O)c1cccnc1)C2.O=C(O)C(F)(F)F.O=C(O)C(F)(F)F (stereo not given) | 25.46%
- O=C(c1ccc[nH]1)N1CCCn2c(nnc2Cn2cccn2)C1 | -8.236%
- O=C(NCC1CCOC1)c1cc(-c2cccc(Cl)c2)on1 (stereo not given) | 39.98%
- CN(C)S(=O)(=O)c1ccc(F)c(NC(=O)COCC2CC2)c1 | -8.357%
- Cn1cnc(S(=O)(=O)N2CCN(Cc3ccco3)CC2)c1Cl | -2.157%
- O=C(O)C(F)(F)F.[H][C@@]12COC[C@]1([H])[C@@H](OCCN(C)C)CN2C(=O)c1cccs1 | 4.197%
- Cc1cc(-c2nn(C)c(Cl)c2CN2CC[C@@](O)(C3CCC3)[C@H](C)C2)no1 | -19.24%
- CNc1ncc2c(n1)CN(CCc1ccc(F)cc1)C2=O | -0.8109%
- COCCn1ccc2c(C(=O)Nc3nc4c(s3)CCC4)cccc21 | -22.89%
- COc1cccc(N2CCN(CC[C@H](O)c3ccccc3)CC2=O)c1 | 5.541%
- O=C(O)[C@@H]1CN(C2CCCC2)C[C@H]1C1CC1 | -72.62%
- c1cc(CCN2CCCC2CN2CCCC2)ccn1 (stereo not given) | -69.6%
- Cc1nn(C)c2nc(N3CCCCC3c3ccc(F)cc3)sc12 (stereo not given) | 33.02%
- Cc1cccc(NC(=O)c2cnc(C3CCCNC3)cn2)n1 (stereo not given) | -3.617%
- Cc1ccc(C)c(NC(=O)N2C[C@H](N(C)C)C[C@H]2CO)c1 | -61.25%
- Cc1cc(N(C)C)cc(C2CCN(S(=O)(=O)c3cccnc3)C2)n1 (stereo not given) | -0.05808%
- Cn1c(CS(=O)(=O)Cc2ccc(Cl)cc2)cc(=O)n(C)c1=O | -15.39%

For reference, 2 entries once more:

structure,effect
CNc1ncc2c(n1)CN(CCc1ccc(F)cc1)C2=O,-0.8109
CN(C)S(=O)(=O)N1CCN(Cc2ccnc(N3CCCC3)n2)CC1,-11.88